Data as given in paper doi:10.1101/2025.07.28.666932.
These are yes or no findings as the source states them, for the method shown. Some results given as binding are weak or reduced against the parent protein; the word gives no strength.

How the values were obtained:
[1] = target: fluorinase FlA1 from Streptomyces sp. strain MA37 (5'-fluoro-5'-deoxyadenosine synthase), wild type (Streptomyces sp. strain MA37) (UniProt W0W999); experiment: mass photometry
[2] = target: fluorinase FlA1 variant C44T (Streptomyces sp. strain MA37) (UniProt W0W999); experiment: mass photometry

binding [1]	binding [2]	Substance
binds	–	fluorinase FlA1 from Streptomyces sp. strain MA37 (5'-fluoro-5'-deoxyadenosine synthase), wild type (from UniProt W0W999 1-299) (enzyme)
–	binds	fluorinase FlA1 variant C44T (from UniProt W0W999 1-299) (enzyme)
